Binding signal data for 42 sequences are collected here from publication PMC7819943, “Rice protein-binding microarrays: a tool to detect cis-acting elements near promoter regions in rice”.

The list shows a part of the results.

In this assay the target is T1, OsSMF1 (Oryza sativa, UniProt Q6ZLB0 1-436).
T1 sequence: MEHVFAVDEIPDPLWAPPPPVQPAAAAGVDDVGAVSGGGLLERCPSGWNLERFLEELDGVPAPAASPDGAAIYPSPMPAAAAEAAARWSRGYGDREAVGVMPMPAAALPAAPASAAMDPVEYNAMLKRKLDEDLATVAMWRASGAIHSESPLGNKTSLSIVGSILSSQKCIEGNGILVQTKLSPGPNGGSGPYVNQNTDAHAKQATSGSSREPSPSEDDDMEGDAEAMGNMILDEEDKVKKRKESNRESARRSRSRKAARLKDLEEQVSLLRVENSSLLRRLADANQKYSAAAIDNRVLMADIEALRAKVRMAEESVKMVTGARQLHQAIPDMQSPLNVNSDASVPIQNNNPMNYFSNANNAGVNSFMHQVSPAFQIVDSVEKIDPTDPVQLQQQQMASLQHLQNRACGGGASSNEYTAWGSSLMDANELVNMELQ
Kind of assay: protein-binding microarray (RPBM); PBS, 2% BSA, 51.3 ng/ul salmon testes DNA, 50 uM zinc acetate, 200 nM TF, 25 C, 1 h; high values mean tight binding. Conditions: protein: recombinant; tags: N-terminal polyhistidine and DsRed monomer fusion (pET32a); chain copies: 2; label: CyDye5-dUTP incorporated in the synthesized complementary strand; 3' TTTTT single-stranded linker to array surface; dsDNA, one strand shown. In a few lines:
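Binding signal is reported as fluorescence intensity per feature (arbitrary units) from an Axon 4000B scanner. Incubation used 200 nM of each Ni–NTA-purified, N-terminally polyhistidine- and DsRed-fused transcription factor from E. coli BL21-CodonPlus on a double-stranded custom Agilent array for 1 h at 25 °C, with 50 µM zinc acetate in the buffer, followed by washing.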
Consider “CCTGTGATCCTTTCCTTACGTATGGTGATCTGCGAATGACCGGAGTCACCTAGTGCAG”, for which the binding signal is 29800 fluorescence intensity (a.u.).

With “GTCGTAGAGCTCCCCAATCAGGGCTTCCTCACTTGTGCCACGGAGTCACCTAGTGCAG”, the binding signal is 3230 fluorescence intensity (a.u.).

With “GCCGGCGTCGCCGTCGGGGATGCACCTCGGCGCGTCCGTCCGGAGTCACCTAGTGCAG”, the binding signal was 3550 fluorescence intensity (a.u.).

Consider “GGCAGCGGGGAATGAAGGTGGCGGTGATGGACGACGTGGCCGGAGTCACCTAGTGCAG”, for which the binding signal was 5180 fluorescence intensity (a.u.).

For “TACTCCGAAAGGCACACGTGACACGCCTTTGCCGCCTTTGCGGAGTCACCTAGTGCAG”, the binding signal is 7170 fluorescence intensity (a.u.).

On to “GCGGCCCACTAGGCGACGTCCACGTCACCCGAATCCTCTGCGGAGTCACCTAGTGCAG”, for which the binding signal was 20900 fluorescence intensity (a.u.).

Take “ACCCCAGCCGCCGCCACGTGCCGCATTGATGGTCCCGGCACGGAGTCACCTAGTGCAG”: the binding signal is 9120 fluorescence intensity (a.u.).

In the case of “GCTTCTAATCTATACGTGTTCTAGCTAAGCTAGCTAGCTACGGAGTCACCTAGTGCAG”, the binding signal is 3680 fluorescence intensity (a.u.).

Turning to “CGCTCGCCACGACTCCTCCCTCTGGCCGACTACTGCCGTCCGGAGTCACCTAGTGCAG”, the binding signal was 3500 fluorescence intensity (a.u.).

On to “ACAACTTGGATCATAATAATATGGGGTTTTACGAAATGTACGGAGTCACCTAGTGCAG”, for which the binding signal was 33600 fluorescence intensity (a.u.).

With “TTCGAAGTATTGAACCATTGACTCATTGAGGTTAGGGAACCGGAGTCACCTAGTGCAG”, the binding signal is 3480 fluorescence intensity (a.u.).

On to “ACAGGCACAGGATGATTCATCAGTACAGTTTCATGCAATCCGGAGTCACCTAGTGCAG”, for which the binding signal is 4900 fluorescence intensity (a.u.).

For the sequence “TGGTATTCAGGTTAATAAACCCAGTCGTCGTGGCACCGACCGGAGTCACCTAGTGCAG”, the binding signal is 6520 fluorescence intensity (a.u.).

For “CACAGAAATACGCCTTCGCCTTCCACGATGGATGGCGTAACGGAGTCACCTAGTGCAG”, the binding signal was 3860 fluorescence intensity (a.u.).

For the sequence “GCGACCCTCCCCTACCCCATCTCACTGACACGTGGGCCCACGGAGTCACCTAGTGCAG”, the binding signal was 11100 fluorescence intensity (a.u.).

In the case of “AAGCAAGGGTCTCCGTCATGCTCACATTCCTAGGTCCTCCCGGAGTCACCTAGTGCAG”, the binding signal was 16400 fluorescence intensity (a.u.).

For the sequence “TCTCTGTGGAGAAAATTCGATCATAGCACAGCAAAGAAAACGGAGTCACCTAGTGCAG”, the binding signal is 5530 fluorescence intensity (a.u.).

For “GCTGCTGCTGCATCCTCCTCTCCTGTGACCTGTCACAGCTCGGAGTCACCTAGTGCAG”, the binding signal was 8080 fluorescence intensity (a.u.).

In the case of “ACTGTGCGCCACACAAGTCACTGTCTCCTCCCAGATGGAGCGGAGTCACCTAGTGCAG”, the binding signal was 3300 fluorescence intensity (a.u.).

Turning to “AGAAATATCATCAACCACCTCATAGTGACTTCGCTTCACTCGGAGTCACCTAGTGCAG”, the binding signal is 4410 fluorescence intensity (a.u.).

“GCGCATTAGCCACCCCACCTCTCCGCGTGGGCCCCGCCAACGGAGTCACCTAGTGCAG”: the binding signal is 3160 fluorescence intensity (a.u.).

As for “TCCACTAGCTAGTAGTACTACTTGAGTTCACAACCGTGCTCGGAGTCACCTAGTGCAG”, the binding signal was 3860 fluorescence intensity (a.u.).

“CAGCCACCTGGGAGGATGCATCTTTCATTGCCAAGGTTTTCGGAGTCACCTAGTGCAG”: the binding signal is 25100 fluorescence intensity (a.u.).

“ATGGCCATGTTTGTTTCAACTTAAGATTATTATAATCTAGCGGAGTCACCTAGTGCAG”: the binding signal is 33900 fluorescence intensity (a.u.).

On to “TTTTAGCCTCCTTTTGGTTAATCTTTGTTTGATCCAAGAACGGAGTCACCTAGTGCAG”, for which the binding signal is 10200 fluorescence intensity (a.u.).

Regarding “TAATTTTACACGTATTCAAGATATGCCACTACCCTTTGGACGGAGTCACCTAGTGCAG”, the binding signal was 6340 fluorescence intensity (a.u.).

In the case of “CCGCGACAGAGGCACGGGTCGCCACGTACGTTCGCAGCTCCGGAGTCACCTAGTGCAG”, the binding signal was 7950 fluorescence intensity (a.u.).

As for “ATTAAAGTGGATTAAAGTGTATTCCTTATACACCAGTTAGCGGAGTCACCTAGTGCAG”, the binding signal was 3140 fluorescence intensity (a.u.).

With “TATGTGTTGACACCAAGGCTGACTCGGTTTTCGTCAAGGTCGGAGTCACCTAGTGCAG”, the binding signal was 6530 fluorescence intensity (a.u.).

For the sequence “AAAGGAAAATAACAAGGCATGTAACGGTGTTTACCATATCCGGAGTCACCTAGTGCAG”, the binding signal is 9130 fluorescence intensity (a.u.).

For the sequence “ACCGTGAGATCCATCACAGCAATCCCACAATCACGACCGTCGGAGTCACCTAGTGCAG”, the binding signal was 4230 fluorescence intensity (a.u.).

As for “CGGTGTCAAACTGTCATGGGTAAGATGAATCATCCTTATGCGGAGTCACCTAGTGCAG”, the binding signal was 3800 fluorescence intensity (a.u.).

On to “TTGCGATTGGAGAGACAGAGAGGAGGGTGTGGGTGCGGGGCGGAGTCACCTAGTGCAG”, for which the binding signal was 3830 fluorescence intensity (a.u.).

In the case of “ATCGAATTAACATGTAAACGTCATGTCAATACTACATAGGCGGAGTCACCTAGTGCAG”, the binding signal is 5040 fluorescence intensity (a.u.).

Consider “GGGTTGGTGGTGCTGCGTGCAGGTCACGGCCGCTACGGCTCGGAGTCACCTAGTGCAG”, for which the binding signal is 4130 fluorescence intensity (a.u.).

As to “TTTATATCATCTGGATGGGAGGGTTCTGCAACTGATGCTACGGAGTCACCTAGTGCAG”, the binding signal was 3720 fluorescence intensity (a.u.).

As for “GGCGTACCGTGCGCCCATGCGCGACGCGTGGCACGCGCTCCGGAGTCACCTAGTGCAG”, the binding signal was 7700 fluorescence intensity (a.u.).

Turning to “CATATAACAAGTGACTGGCACACAAACCCACAATGAAGTGCGGAGTCACCTAGTGCAG”, the binding signal was 43500 fluorescence intensity (a.u.).

Consider “AGCCTAGCTATGATGTGTTCCCACACCAGCTAGCTAGCTTCGGAGTCACCTAGTGCAG”, for which the binding signal is 4640 fluorescence intensity (a.u.).

“AGCCCGGCCCACCACGGGGTTTCCCTCTTCTCTAGGCCCGCGGAGTCACCTAGTGCAG”: the binding signal was 50600 fluorescence intensity (a.u.).

As to “GAAGTAGAAATTTGATGTGGCCACTTTCACGTAGATCTATCGGAGTCACCTAGTGCAG”, the binding signal was 4130 fluorescence intensity (a.u.).

Take “CGAACAAGCCATAAATCAAATATCGGAGAGCGAAAGAGTACGGAGTCACCTAGTGCAG”: the binding signal is 22600 fluorescence intensity (a.u.).
